# From US6583179B2, “Substituted aminoalkylamide derivatives as antagonists of follicle stimulating hormone” (Ortho-McNeil Pharmaceutical, Inc., priority 1999, dated 2003)
# Chains of the proteins cited; added tags and fusions are not shown. Residues count along the entry.
# UniProt P23945, 18-695 limits assumed: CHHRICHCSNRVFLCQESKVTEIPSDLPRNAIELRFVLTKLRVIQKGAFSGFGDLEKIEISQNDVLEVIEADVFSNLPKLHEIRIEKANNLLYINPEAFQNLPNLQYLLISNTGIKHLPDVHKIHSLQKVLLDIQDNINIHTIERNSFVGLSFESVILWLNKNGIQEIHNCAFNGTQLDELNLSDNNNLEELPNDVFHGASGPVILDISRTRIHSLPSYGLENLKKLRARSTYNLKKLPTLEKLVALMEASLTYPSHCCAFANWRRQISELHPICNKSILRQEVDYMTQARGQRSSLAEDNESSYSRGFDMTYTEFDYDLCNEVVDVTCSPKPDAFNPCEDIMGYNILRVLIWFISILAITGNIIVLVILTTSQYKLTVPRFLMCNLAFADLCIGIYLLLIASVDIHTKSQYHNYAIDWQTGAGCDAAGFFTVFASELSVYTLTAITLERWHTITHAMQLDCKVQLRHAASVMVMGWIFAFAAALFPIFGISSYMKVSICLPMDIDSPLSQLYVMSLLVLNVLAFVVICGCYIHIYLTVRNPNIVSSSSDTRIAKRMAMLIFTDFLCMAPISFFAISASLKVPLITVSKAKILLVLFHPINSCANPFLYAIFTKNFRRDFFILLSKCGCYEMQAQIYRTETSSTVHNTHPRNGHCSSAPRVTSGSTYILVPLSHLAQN
# Target: human FSH receptor (Homo sapiens, UniProt P23945)
# Assay: hFSHR CHO cAMP assay (rhFSHR-cLUC cells, FSH-stimulated cAMP, radioimmunoassay)
# Conditions: read-out: EC50 hFSHR CHO cAMP; inhibition of cAMP produced by EC70 dose of FSH (4.85 nM); maximum concentration 50 μM
# Description: Minimum Essential Medium-Alpha (MEM-alpha), fetal bovine serum (FBS), penicillin, streptomycin, geneticin, trypsin-EDTA, Hanks' Balanced Salt Solution (no Calcium chloride, Magnesium chloride, Magnesium sulfate, or phenol red; Ca-Mg free HBSS) were purchased from Gibco BRL (Gaithersburg, Md.). The cells used for the FSH bioassay (rhFSHR-cLUC) were Chinese Hamster Ovary cells (K-1; ATCC) stably transformed with human FSH receptor (pSVK-FSHr) and a cAMP luciferase reporter gene (responsive CGα-180LUC). Follicle Stimulating Hormone (Metrodin; Fertinex) was purchased from Serono, Ltd. (Norwell, Mass.).
# The rhFSHR-cLUC cell cultures were maintained in MEM-Alpha supplemented with 10% heat-inactivated FBS (HIFBS), 100 U/ml penicillin, 100 μg/mL streptomycin, and included 0.1 g/L geneticin for stable cell selection.
# Forty-eight hours after the cells were plated in sterile 96-well culture plates (Corning, Corning, N.Y.) the spent media was removed and 50 μl assay media (modified growth media with 2% HIFBS) containing 2 mM IBMX (3-isobutyl-1-methyl-xanthine) was added to the cells. […] The amount of cAMP produced was measured by radioimmunoassay in a FlashPlate (DuPont, Boston, Mass.). […] The FlashPlates were sealed, incubated overnight @ room temperature, and counted in a Packard TopCount (Packard Instrument Co., Meriden, Conn.). The cAMP radioimmunoassay results were calculated using DPM conversion and log-logit transformation of % binding (Excel program). […]
# For individual experiments, a set of samples were tested including a vehicle control (assay buffer), a reference compound (hFSH) at a range of concentrations designed to elicit a minimal to maximal response, and several concentrations of test compounds together with an EC70 concentration of standard (hFSH challenge). […] The cAMP radioimmunoassay raw data (pmol) were calculated to provide average pmol cAMP produced/ml and the percent inhibition was calculated as shown below. […]
# EC50 values were calculated from an analysis of the concentration-inhibition data using a linear analysis of the data transformed to a log-logit format.
row,SMILES,EC50
1,C[C@@H](CN(CC(=O)NCc1ccc(CN)cc1)S(=O)(=O)c1ccc(-c2ccccc2C(F)(F)F)cc1)c1ccccc1 [420],640 nM and 210 nM
2,C[C@@H](CN(CC(=O)NCc1ccc(CN)cc1)S(=O)(=O)c1ccc(-c2ccc(Cl)cc2Cl)cc1)c1ccccc1 [429],3.03 µM and 770 nM
3,Cc1cc(C)c(-c2ccc(S(=O)(=O)N(CC(=O)NCc3ccc(CN)cc3)C[C@H](C)c3ccccc3)cc2)c(C)c1 [463],2.14 µM and 580 nM

# Certain results were filed several times, with different values. The other results are left out here. The source may hold further records. Results that share an entry appear to be repeats on other runs, samples or individuals.
